{"source": "paper PMC7819943", "about": "“Rice protein-binding microarrays: a tool to detect cis-acting elements near promoter regions in rice”", "note": "The other results are listed elsewhere or left out."}
{"target": "T1, OsSMF1 (Oryza sativa, UniProt Q6ZLB0 1-436)", "T1 sequence": "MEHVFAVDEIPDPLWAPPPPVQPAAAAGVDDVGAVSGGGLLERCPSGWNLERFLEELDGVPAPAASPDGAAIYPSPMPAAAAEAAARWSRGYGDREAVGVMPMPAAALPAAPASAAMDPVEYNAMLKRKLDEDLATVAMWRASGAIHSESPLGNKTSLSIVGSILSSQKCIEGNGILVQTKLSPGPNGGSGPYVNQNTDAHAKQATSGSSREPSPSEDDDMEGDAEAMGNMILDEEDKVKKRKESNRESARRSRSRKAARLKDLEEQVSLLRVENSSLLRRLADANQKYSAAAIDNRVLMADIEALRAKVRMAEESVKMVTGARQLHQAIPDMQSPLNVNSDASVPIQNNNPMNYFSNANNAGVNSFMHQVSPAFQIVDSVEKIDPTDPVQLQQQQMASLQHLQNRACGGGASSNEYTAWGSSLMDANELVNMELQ", "test": "protein-binding microarray (RPBM); PBS, 2% BSA, 51.3 ng/ul salmon testes DNA, 50 uM zinc acetate, 200 nM TF, 25 C, 1 h; high values mean tight binding", "settings": "protein: recombinant; tags: N-terminal polyhistidine and DsRed monomer fusion (pET32a); chain copies: 2; label: CyDye5-dUTP incorporated in the synthesized complementary strand; 3' TTTTT single-stranded linker to array surface; dsDNA, one strand shown", "in_short": "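In PBS with 2% BSA, salmon testes DNA and 50 µM zinc acetate, 200 nM protein was incubated on a custom Agilent array at 25 °C for 1 h and then washed off. The array had been made double-stranded by primer extension with Cy5-dUTP and blocked with 2% BSA. The proteins were transcription factors fused N-terminally to polyhistidine and DsRed, expressed in E. coli BL21-CodonPlus and purified on Ni–NTA. The binding signal is per-feature fluorescence intensity (arbitrary units) from an Axon 4000B scanner.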"}
{"sequence": "CCCCGGCTTCCCCGCCGAACCCCTCCCGCCTATTCGTCCGCGGAGTCACCTAGTGCAG", "binding signal": "3400 fluorescence intensity (a.u.)"}
{"sequence": "GTTCAATTTGCTCTCTGACAACTACGTTTCGACAACTACACGGAGTCACCTAGTGCAG", "binding signal": "3530 fluorescence intensity (a.u.)"}
{"sequence": "CAAGGCTGATTTGTCACAACGCTATTGGCCACATAGAGATCGGAGTCACCTAGTGCAG", "binding signal": "27600 fluorescence intensity (a.u.)"}
{"sequence": "TCATTAAATACCCAAAGCCTTATATATATATTCATCTAAACGGAGTCACCTAGTGCAG", "binding signal": "33800 fluorescence intensity (a.u.)"}
{"sequence": "ATTTGCTTCCGCCACGTGCCATATTTGGGTCTATACTGGCCGGAGTCACCTAGTGCAG", "binding signal": "13000 fluorescence intensity (a.u.)"}
{"sequence": "AAGGACTGGGTGAAGCTCAGCCTTGAGCTGCCACCGCGGACGGAGTCACCTAGTGCAG", "binding signal": "4570 fluorescence intensity (a.u.)"}
{"sequence": "CAGAGTTCCGTTCTGAATTTCTGGTGAGTCATCTGCTGAACGGAGTCACCTAGTGCAG", "binding signal": "8920 fluorescence intensity (a.u.)"}
{"sequence": "TTACGCCGCGCTGCTACCACAGTGTAGTCCACCTCAGCTGCGGAGTCACCTAGTGCAG", "binding signal": "5850 fluorescence intensity (a.u.)"}
{"sequence": "GTCACCACTCACCACTCTGCTAAGGCGCGCGTCAGTCAACCGGAGTCACCTAGTGCAG", "binding signal": "3420 fluorescence intensity (a.u.)"}
{"sequence": "GCGCACACACACACACAGATATATATATATATATATATATCGGAGTCACCTAGTGCAG", "binding signal": "4200 fluorescence intensity (a.u.)"}
{"sequence": "GTAAAATTCCTACCAACGCTTCTCAGCTGCCACGTGTACCCGGAGTCACCTAGTGCAG", "binding signal": "24000 fluorescence intensity (a.u.)"}
{"sequence": "GCGCAAGAACGGGATCACCCACGTGCTCAATTGTGTCGGCCGGAGTCACCTAGTGCAG", "binding signal": "3850 fluorescence intensity (a.u.)"}
{"sequence": "TGAAGGATGTGATTAGGAGGAGTCATATCCCATGAATTTTCGGAGTCACCTAGTGCAG", "binding signal": "3960 fluorescence intensity (a.u.)"}
{"sequence": "CATCATATGCATATGTATGTCATATTATCATGACATGCGACGGAGTCACCTAGTGCAG", "binding signal": "4700 fluorescence intensity (a.u.)"}
{"sequence": "GCATACGTGCGTGACCGCGCCATGTGCAGTTTCCATCTTACGGAGTCACCTAGTGCAG", "binding signal": "4110 fluorescence intensity (a.u.)"}
{"sequence": "CCGCTCACATGTGACATGTCACAGCCTTATCTCTTTCTCCCGGAGTCACCTAGTGCAG", "binding signal": "7590 fluorescence intensity (a.u.)"}
{"sequence": "CCAACCTTCAGACCAGCGCCATAACTGCCTCACATCTCACCGGAGTCACCTAGTGCAG", "binding signal": "3200 fluorescence intensity (a.u.)"}
{"sequence": "CTTCTGGACTTATGGCCCATATACCAACTGAATTCAACAACGGAGTCACCTAGTGCAG", "binding signal": "25100 fluorescence intensity (a.u.)"}
{"sequence": "AGCTGCAGCTCAAGCTGGAAGGCCACGAAGTGATTTTGTGCGGAGTCACCTAGTGCAG", "binding signal": "3790 fluorescence intensity (a.u.)"}
{"sequence": "CTCATCACCGCCGCCCACGTCACCCTCTACGACTTCAACACGGAGTCACCTAGTGCAG", "binding signal": "16700 fluorescence intensity (a.u.)"}
{"sequence": "TCCTACACAAAACATTTACACATTGTCACGTCGAACATTTCGGAGTCACCTAGTGCAG", "binding signal": "3850 fluorescence intensity (a.u.)"}
{"sequence": "GCTAAGAGTGTGTTATAGCTAAAACGTGACTCAAAGTAGTCGGAGTCACCTAGTGCAG", "binding signal": "3570 fluorescence intensity (a.u.)"}
{"sequence": "GCCCAGAAGATCACATATCGTCTCCACGTGTGCGTCTGGTCGGAGTCACCTAGTGCAG", "binding signal": "12800 fluorescence intensity (a.u.)"}
{"sequence": "CCGCGTCGCCCATTGTGACGAAGAGCCTCGTCGGCGTGGACGGAGTCACCTAGTGCAG", "binding signal": "4410 fluorescence intensity (a.u.)"}
{"sequence": "CAAAGTCTCGTTTTACCGTGGTTTTGGCTACGTGGACGATCGGAGTCACCTAGTGCAG", "binding signal": "4330 fluorescence intensity (a.u.)"}
{"sequence": "ATCAGGCCTGAATTTATAGTGACACCACTGGCCCATGATGCGGAGTCACCTAGTGCAG", "binding signal": "4010 fluorescence intensity (a.u.)"}
{"sequence": "CTCGATTCCCCTCTCCCCTCACTTTCTCTCTCTCTCTCTCCGGAGTCACCTAGTGCAG", "binding signal": "28300 fluorescence intensity (a.u.)"}
{"sequence": "GATTCTTTTCGTGACGTTTCACGTGTCGATCAGCAGTTGCCGGAGTCACCTAGTGCAG", "binding signal": "4470 fluorescence intensity (a.u.)"}
{"sequence": "CCCTCCGGTGGCCACCTCACCCATGGCTACTACACCGCGGCGGAGTCACCTAGTGCAG", "binding signal": "5030 fluorescence intensity (a.u.)"}
{"sequence": "TGATCTGGAATGTGGCGGTTACATGGGCCTGAACTGATGTCGGAGTCACCTAGTGCAG", "binding signal": "13800 fluorescence intensity (a.u.)"}
{"sequence": "GAGCTTCCTATCGCGCCGCCGCGTGCGTACGTGTTTGATCCGGAGTCACCTAGTGCAG", "binding signal": "6120 fluorescence intensity (a.u.)"}
{"sequence": "TCGCCTTGCCGCGCCCGCGCATTCCCGCAAACACCTCGCCCGGAGTCACCTAGTGCAG", "binding signal": "29200 fluorescence intensity (a.u.)"}
{"sequence": "TCAACTCCACGCTAGCATCTTCATTGTCGATTAGCAAAATCGGAGTCACCTAGTGCAG", "binding signal": "3480 fluorescence intensity (a.u.)"}
{"sequence": "AATATGGTGGTGGCACTACCACCTCAACATTCTTTTACACCGGAGTCACCTAGTGCAG", "binding signal": "3500 fluorescence intensity (a.u.)"}
{"sequence": "GATCCAATTGCCACATAAACTTCACGTCAATACCACGTGGCGGAGTCACCTAGTGCAG", "binding signal": "8820 fluorescence intensity (a.u.)"}
{"sequence": "CCGTCGACCACTTCGGCGGCCGCGTCACCATCGGCGACGTCGGAGTCACCTAGTGCAG", "binding signal": "12300 fluorescence intensity (a.u.)"}
{"sequence": "GCTTGTGTGCTGATCAGTAGAATAGACTGGTTTCTCAACACGGAGTCACCTAGTGCAG", "binding signal": "34300 fluorescence intensity (a.u.)"}
{"sequence": "CGGGATAATATCTCTGAGATATCGTCCGATACCAGTATCACGGAGTCACCTAGTGCAG", "binding signal": "15600 fluorescence intensity (a.u.)"}
{"sequence": "CCGTGAGATGACTTGGTTGTTCCACATAGGACAATGACATCGGAGTCACCTAGTGCAG", "binding signal": "3620 fluorescence intensity (a.u.)"}
{"sequence": "GAGTATATATGTACTAATCAGAAATCTGACAAGGCAACGTCGGAGTCACCTAGTGCAG", "binding signal": "4330 fluorescence intensity (a.u.)"}
{"sequence": "ATGACAAGTTGTAGTTGACGCAGCACTTGTTAAGTTTCTTCGGAGTCACCTAGTGCAG", "binding signal": "5140 fluorescence intensity (a.u.)"}
{"sequence": "AGGAATGCATTTGTGGTGGGTGCAGGTGCGCGGGTGGCGACGGAGTCACCTAGTGCAG", "binding signal": "3340 fluorescence intensity (a.u.)"}
